The text below walks through data of publication PMC5996148.

The chains behind the UniProt entries cited, without tags or fusion partners.
UniProt P14625, whole entry: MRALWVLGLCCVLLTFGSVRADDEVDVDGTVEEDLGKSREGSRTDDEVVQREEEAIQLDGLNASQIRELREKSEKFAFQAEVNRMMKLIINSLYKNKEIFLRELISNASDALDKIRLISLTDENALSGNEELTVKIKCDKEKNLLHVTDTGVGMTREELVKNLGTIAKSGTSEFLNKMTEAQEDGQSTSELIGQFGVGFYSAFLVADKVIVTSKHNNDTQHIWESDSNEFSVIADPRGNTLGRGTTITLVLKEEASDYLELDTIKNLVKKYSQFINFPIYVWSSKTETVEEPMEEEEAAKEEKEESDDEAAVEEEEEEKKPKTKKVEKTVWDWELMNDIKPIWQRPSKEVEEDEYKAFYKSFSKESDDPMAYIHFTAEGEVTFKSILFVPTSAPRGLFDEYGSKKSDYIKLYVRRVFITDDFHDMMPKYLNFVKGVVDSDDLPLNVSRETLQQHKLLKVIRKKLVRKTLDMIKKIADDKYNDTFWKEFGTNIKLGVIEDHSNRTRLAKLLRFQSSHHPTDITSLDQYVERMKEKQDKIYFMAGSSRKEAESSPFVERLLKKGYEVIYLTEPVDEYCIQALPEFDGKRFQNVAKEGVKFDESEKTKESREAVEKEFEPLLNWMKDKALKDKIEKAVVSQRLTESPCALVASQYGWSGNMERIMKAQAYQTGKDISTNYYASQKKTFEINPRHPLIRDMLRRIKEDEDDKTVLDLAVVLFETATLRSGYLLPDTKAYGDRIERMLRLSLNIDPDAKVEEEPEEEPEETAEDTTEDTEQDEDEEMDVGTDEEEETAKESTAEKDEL

Some test systems named below: HSD11B1 (human); HSD17B10 (human); HSD17B8 (human); HSD3B2 (human); HSDL2 (human); HSF1 (human); HSH2D (human); HSPA2 (human); HSPA4 (human).
What all share (assay): protein microarray (ProtoArray v5.0), streptavidin-Alexa Fluor 647
Conditions in all cases: 3'-biotin; 20 mM Tris (pH 7.5), 5 mM MgCl2, 100 mM KCl, 0.1% Tween-20, A/T-rich and random oligonucleotide blockers; temperature not stated; high values mean tight binding

Another test has as its target HSP90B1 (UniProt P14625).

Some of the results follow. For some of these results: The exact form of the protein is not confirmed.

Consider “GGGAGGCTGAGGCAGG [G4-1 biotinylated (PQS2)]”, for which the binding signal was -0.338 z-score in the test with HSD11B1 (human); -0.305 z-score in the test with HSD17B10 (human); -0.321 z-score in the test with HSD17B8 (human); -0.326 z-score in the test with HSD3B2 (human); -0.265 z-score in the test on HSDL2 (human); -0.354 z-score in the test with HSF1 (human). Also, the binding signal in the test with HSH2D (human) is -0.306 z-score; with HSP90B1 it was -0.323 z-score; in the test with HSPA2 (human) it was -0.246 z-score; in the test with HSPA4 (human), -0.323 z-score.
